One assay has as its target T1, L5UR-SNAP (UniProt P15814).
T1 sequence: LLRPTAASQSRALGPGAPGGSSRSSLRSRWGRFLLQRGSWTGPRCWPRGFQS
In words: pull-down; HEK293-EBNA cells co-transfected with hGal1 and L5UR-SNAP, mutL5UR-SNAP or SNAP; cleared lysate with SNAP-capture magnetic beads 2 h at room temperature; washes with 150 mM NaCl, 0.5% NP-40; immunoblot.

Chains of the proteins cited; added tags and fusions are not shown. Lines headed by an entry give the natural chain unless they say otherwise; changes in a name come on top. Residues count along the entry.
UniProt P15056: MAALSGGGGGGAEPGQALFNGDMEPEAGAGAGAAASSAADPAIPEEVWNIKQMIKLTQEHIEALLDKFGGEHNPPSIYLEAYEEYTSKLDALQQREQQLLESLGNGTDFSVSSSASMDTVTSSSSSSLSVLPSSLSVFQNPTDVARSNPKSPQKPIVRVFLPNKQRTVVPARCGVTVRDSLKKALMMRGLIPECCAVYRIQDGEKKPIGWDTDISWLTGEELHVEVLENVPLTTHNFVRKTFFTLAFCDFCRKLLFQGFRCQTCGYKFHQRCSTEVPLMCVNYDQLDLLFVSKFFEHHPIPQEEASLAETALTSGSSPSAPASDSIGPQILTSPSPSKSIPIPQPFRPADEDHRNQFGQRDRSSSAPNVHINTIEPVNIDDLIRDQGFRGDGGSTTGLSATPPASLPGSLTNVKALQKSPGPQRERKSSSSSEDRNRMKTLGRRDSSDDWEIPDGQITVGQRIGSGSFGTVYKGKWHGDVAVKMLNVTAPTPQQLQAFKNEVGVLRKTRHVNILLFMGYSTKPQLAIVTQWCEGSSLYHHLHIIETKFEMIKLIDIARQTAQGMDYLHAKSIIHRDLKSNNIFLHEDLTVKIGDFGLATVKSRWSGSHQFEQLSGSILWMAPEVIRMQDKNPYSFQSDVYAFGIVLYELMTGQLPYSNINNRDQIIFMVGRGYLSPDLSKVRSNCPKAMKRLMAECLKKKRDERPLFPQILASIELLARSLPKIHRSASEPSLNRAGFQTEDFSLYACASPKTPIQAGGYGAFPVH
B-Raf-derived RBD (BRET construct): residues 155-227 of P15056
UniProt P09382: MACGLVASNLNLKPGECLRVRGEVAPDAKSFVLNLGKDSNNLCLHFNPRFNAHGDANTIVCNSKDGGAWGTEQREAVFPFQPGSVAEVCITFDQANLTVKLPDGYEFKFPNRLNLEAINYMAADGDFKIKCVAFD
UniProt O75901: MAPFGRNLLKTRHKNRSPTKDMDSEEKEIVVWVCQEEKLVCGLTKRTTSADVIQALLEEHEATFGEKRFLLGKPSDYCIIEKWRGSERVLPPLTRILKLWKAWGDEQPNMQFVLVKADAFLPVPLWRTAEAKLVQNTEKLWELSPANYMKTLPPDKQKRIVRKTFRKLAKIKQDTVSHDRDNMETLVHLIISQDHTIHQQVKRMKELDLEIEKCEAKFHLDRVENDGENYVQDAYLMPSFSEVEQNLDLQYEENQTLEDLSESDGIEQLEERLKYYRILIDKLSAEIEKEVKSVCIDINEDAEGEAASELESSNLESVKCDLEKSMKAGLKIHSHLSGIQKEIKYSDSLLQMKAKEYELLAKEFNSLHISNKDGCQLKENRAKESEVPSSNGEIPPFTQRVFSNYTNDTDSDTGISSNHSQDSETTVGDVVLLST

Assay [1] deals with B-Raf-derived RBD (BRET construct) (UniProt P15056). The assay can be described thus: FRET or BRET; dose-response BRET of Gal1/B-RBD (donor:acceptor plasmid 1:10) in HEK293-EBNA cells with 125 to 850 ng modulator plasmid of L5UR constructs, 48 h.
Assay [2] concerns the target T2, A-Raf-derived RBD (BRET construct) (UniProt P10398).
T2 sequence: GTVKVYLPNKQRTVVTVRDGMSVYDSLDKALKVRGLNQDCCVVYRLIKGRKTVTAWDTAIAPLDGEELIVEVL
In words: FRET or BRET; BRET donor saturation titration in HEK293-EBNA cells; 25 ng donor plasmid, 25 to 1000 ng acceptor plasmid, 48 h expression; BRETtop compared.

For a further assay, the target named is B-Raf (BRET construct) (UniProt P15056). The assay is described as above.
Assay [3] has as its target T3, A-RBD with mutation D75A (BRET construct) (UniProt P10398).
T3 sequence: T2 sequence with D57A
The description is as above.

For assay [4], the target named is B-Raf-derived RBD (BRET construct) (UniProt P15056). The description is as above.
Assay [5] has as its target T4, biotin-tagged L5UR peptide (UniProt P15814).
T4 sequence (peptide, N-terminal biotin via a PEG5-linker): T1 sequence
In words: pull-down; biotinylated L5UR (4 µM) with His-Gal1, GST-B-RBD or GST (2 µM each) in 150 µL; peptide and Gal1 30 min at 37 °C, then GST-B-RBD or GST 1 h; beads 1 h at room temperature; immunoblot; both purified.

Substitutions are numbered along the chain they refer to. Results are given in words; binding and its absence hold for the method and conditions named. For some assays here: Binding seen in cells or lysates may run through a third protein. Some binding calls cover weakened binding; strength is not graded here. For some assays here: Sequences can lack the tags named with a protein.

For “full-length B-Raf (HEK lysate) (from UniProt P15056 1-766)”, in the assay with L5UR-SNAP, the binding result is given as “binds”.
For the substance “galectin-1 (BRET construct) (from UniProt P09382 1-135)”, the binding entry (in assay [1]; in assay [2]; with B-Raf (BRET construct); in assay [3]; in assay [4]) was “binds” throughout.
As for “RASSF9 (HEK lysate) (from UniProt O75901 1-435)”, the binding result with L5UR-SNAP was “binds”.
Turning to “His-tagged galectin-1 (from UniProt P09382 1-135)”, in assay [5], the binding result was “binds”.

Values taken from publication PMC11233548, “Identification of an H-Ras nanocluster disrupting peptide” (Communications Biology, 2024).
